Experimental data: publication doi:10.1101/2025.09.17.676719
These are yes or no findings as the source states them, for the method shown. Binding seen in cells or lysates may run through a third protein. Here binding means that the protein was enriched with, or labelled near, the bait; the list need not be complete.

Chains of the proteins cited; added tags and fusions are not shown. Residues count along the entry.
UniProt Q6PD10: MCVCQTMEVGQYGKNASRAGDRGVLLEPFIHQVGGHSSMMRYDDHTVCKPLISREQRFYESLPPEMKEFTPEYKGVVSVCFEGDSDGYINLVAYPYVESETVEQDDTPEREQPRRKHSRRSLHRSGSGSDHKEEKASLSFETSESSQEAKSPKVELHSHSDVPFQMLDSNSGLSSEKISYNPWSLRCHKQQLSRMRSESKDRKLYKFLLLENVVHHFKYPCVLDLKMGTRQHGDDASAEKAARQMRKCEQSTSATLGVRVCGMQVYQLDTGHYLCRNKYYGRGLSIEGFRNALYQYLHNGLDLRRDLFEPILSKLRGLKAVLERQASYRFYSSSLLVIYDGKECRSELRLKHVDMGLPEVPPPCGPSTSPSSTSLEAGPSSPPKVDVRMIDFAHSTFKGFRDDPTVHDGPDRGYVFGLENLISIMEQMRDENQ
UniProt P07355: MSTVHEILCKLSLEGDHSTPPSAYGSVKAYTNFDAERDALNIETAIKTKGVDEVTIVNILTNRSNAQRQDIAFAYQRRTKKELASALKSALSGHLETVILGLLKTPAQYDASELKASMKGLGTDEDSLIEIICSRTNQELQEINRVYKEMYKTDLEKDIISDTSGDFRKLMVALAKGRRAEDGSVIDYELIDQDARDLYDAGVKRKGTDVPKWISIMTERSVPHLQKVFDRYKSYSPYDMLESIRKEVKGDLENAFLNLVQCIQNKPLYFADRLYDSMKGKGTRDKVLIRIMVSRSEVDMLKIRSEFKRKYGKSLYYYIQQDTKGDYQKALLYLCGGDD
UniProt P31431, residues 19-198: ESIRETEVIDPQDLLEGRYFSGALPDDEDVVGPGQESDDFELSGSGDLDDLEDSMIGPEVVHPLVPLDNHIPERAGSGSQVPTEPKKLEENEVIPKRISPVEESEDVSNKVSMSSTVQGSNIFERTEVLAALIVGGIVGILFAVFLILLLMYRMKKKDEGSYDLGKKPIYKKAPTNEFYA

B1: UBE4A (protein, UniProt Q14139 1-1066)
chain: MTDQENNNNISSNPFAALFGSLADAKQFAAIQKEQLKQQSDELPASPDDSDNSVSESLDEFDYSVAEISRSFRSQQEICEQLNINHMIQRIFLITLDNSDPSLKSGNGIPSRCVYLEEMAVELEDQDWLDMSNVEQALFARLLLQDPGNHLINMTSSTTLNLSADRDAGERHIFCYLYSCFQRAKEEITKVPENLLPFAVQCRNLTVSNTRTVLLTPEIYVDQNIHEQLVDLMLEAIQGAHFEDVTEFLEEVIEALILDEEVRTFPEVMIPVFDILLGRIKDLELCQILLYAYLDILLYFTRQKDMAKVFVEYIQPKDPTNGQMYQKTLLGVILSISCLLKTPGVVENHGYFLNPSRSSPQEIKVQEANIHQFMAQFHEKIYQMLKNLLQLSPETKHCILSWLGNCLHANAGRTKIWANQMPEIFFQMYASDAFFLNLGAALLKLCQPFCKPRSSRLLTFNPTYCALKELNDEERKIKNVHMRGLDKETCLIPAVQEPKFPQNYNLVTENLALTEYTLYLGFHRLHDQMVKINQNLHRLQVAWRDAQQSSSPAADNLREQFERLMTIYLSTKTAMTEPQMLQNCLNLQVSMAVLLVQLAIGNEGSQPIELTFPLPDGYSSLAYVPEFFADNLGDFLIFLRRFADDILETSADSLEHVLHFITIFTGSIERMKNPHLRAKLAEVLEAVMPHLDQTPNPLVSSVFHRKRVFCNFQYAPQLAEALIKVFVDIEFTGDPHQFEQKFNYRRPMYPILRYMWGTDTYRESIKDLADYASKNLEAMNPPLFLRFLNLLMNDAIFLLDEAIQYLSKIKIQQIEKDRGEWDSLTPEARREKEAGLQMFGQLARFHNIMSNETIGTLAFLTSEIKSLFVHPFLAERIISMLNYFLQHLVGPKMGALKVKDFSEFDFKPQQLVSDICTIYLNLGDEENFCATVPKDGRSYSPTLFAQTVRVLKKINKPGNMIMAFSNLAERIKSLADLQQQEEETYADACDEFLDPIMSTLMCDPVVLPSSRVTVDRSTIARHLLSDQTDPFNRSPLTMDQIRPNTELKEKIQRWLAERKQQKEQLE
B2: AP3B1 (protein, UniProt O00203 1-1094)
chain: MSSNSFPYNEQSGGGEATELGQEATSTISPSGAFGLFSSDLKKNEDLKQMLESNKDSAKLDAMKRIVGMIAKGKNASELFPAVVKNVASKNIEIKKLVYVYLVRYAEEQQDLALLSISTFQRALKDPNQLIRASALRVLSSIRVPIIVPIMMLAIKEASADLSPYVRKNAAHAIQKLYSLDPEQKEMLIEVIEKLLKDKSTLVAGSVVMAFEEVCPDRIDLIHKNYRKLCNLLVDVEEWGQVVIIHMLTRYARTQFVSPWKEGDELEDNGKNFYESDDDQKEKTDKKKKPYTMDPDHRLLIRNTKPLLQSRNAAVVMAVAQLYWHISPKSEAGIISKSLVRLLRSNREVQYIVLQNIATMSIQRKGMFEPYLKSFYVRSTDPTMIKTLKLEILTNLANEANISTLLREFQTYVKSQDKQFAAATIQTIGRCATNILEVTDTCLNGLVCLLSNRDEIVVAESVVVIKKLLQMQPAQHGEIIKHMAKLLDSITVPVARASILWLIGENCERVPKIAPDVLRKMAKSFTSEDDLVKLQILNLGAKLYLTNSKQTKLLTQYILNLGKYDQNYDIRDRTRFIRQLIVPNVKSGALSKYAKKIFLAQKPAPLLESPFKDRDHFQLGTLSHTLNIKATGYLELSNWPEVAPDPSVRNVEVIELAKEWTPAGKAKQENSAKKFYSESEEEEDSSDSSSDSESESGSESGEQGESGEEGDSNEDSSEDSSSEQDSESGRESGLENKRTAKRNSKAKGKSDSEDGEKENEKSKTSDSSNDESSSIEDSSSDSESESEPESESESRRVTKEKEKKTKQDRTPLTKDVSLLDLDDFNPVSTPVALPTPALSPSLMADLEGLHLSTSSSVISVSTPAFVPTKTHVLLHRMSGKGLAAHYFFPRQPCIFGDKMVSIQITLNNTTDRKIENIHIGEKKLPIGMKMHVFNPIDSLEPEGSITVSMGIDFCDSTQTASFQLCTKDDCFNVNIQPPVGELLLPVAMSEKDFKKEQGVLTGMNETSAVIIAAPQNFTPSVIFQKVVNVANVGAVPSGQDNIHRFAAKTVHSGSLMLVTVELKEGSTAQLIINTEKTVIGSVLLRELKPVLSQG

Molecular target: SFB-tagged mouse IP6K1 (inositol hexakisphosphate kinase 1) (mouse) (UniProt Q6PD10)
Assay: affinity purification with mass spectrometry

binding, binds:
Annexin A2 (ANXA2) (from UniProt P07355 1-339)
endogenous Syndecan-4 (SDC4) of AGS cells (from UniProt P31431 19-198)
B1
B2
